The results in this text go back to publication PMC5427856.

By UniProt entry, the sequences of proteins in these tests, tags left out.
UniProt Q8K4Q0: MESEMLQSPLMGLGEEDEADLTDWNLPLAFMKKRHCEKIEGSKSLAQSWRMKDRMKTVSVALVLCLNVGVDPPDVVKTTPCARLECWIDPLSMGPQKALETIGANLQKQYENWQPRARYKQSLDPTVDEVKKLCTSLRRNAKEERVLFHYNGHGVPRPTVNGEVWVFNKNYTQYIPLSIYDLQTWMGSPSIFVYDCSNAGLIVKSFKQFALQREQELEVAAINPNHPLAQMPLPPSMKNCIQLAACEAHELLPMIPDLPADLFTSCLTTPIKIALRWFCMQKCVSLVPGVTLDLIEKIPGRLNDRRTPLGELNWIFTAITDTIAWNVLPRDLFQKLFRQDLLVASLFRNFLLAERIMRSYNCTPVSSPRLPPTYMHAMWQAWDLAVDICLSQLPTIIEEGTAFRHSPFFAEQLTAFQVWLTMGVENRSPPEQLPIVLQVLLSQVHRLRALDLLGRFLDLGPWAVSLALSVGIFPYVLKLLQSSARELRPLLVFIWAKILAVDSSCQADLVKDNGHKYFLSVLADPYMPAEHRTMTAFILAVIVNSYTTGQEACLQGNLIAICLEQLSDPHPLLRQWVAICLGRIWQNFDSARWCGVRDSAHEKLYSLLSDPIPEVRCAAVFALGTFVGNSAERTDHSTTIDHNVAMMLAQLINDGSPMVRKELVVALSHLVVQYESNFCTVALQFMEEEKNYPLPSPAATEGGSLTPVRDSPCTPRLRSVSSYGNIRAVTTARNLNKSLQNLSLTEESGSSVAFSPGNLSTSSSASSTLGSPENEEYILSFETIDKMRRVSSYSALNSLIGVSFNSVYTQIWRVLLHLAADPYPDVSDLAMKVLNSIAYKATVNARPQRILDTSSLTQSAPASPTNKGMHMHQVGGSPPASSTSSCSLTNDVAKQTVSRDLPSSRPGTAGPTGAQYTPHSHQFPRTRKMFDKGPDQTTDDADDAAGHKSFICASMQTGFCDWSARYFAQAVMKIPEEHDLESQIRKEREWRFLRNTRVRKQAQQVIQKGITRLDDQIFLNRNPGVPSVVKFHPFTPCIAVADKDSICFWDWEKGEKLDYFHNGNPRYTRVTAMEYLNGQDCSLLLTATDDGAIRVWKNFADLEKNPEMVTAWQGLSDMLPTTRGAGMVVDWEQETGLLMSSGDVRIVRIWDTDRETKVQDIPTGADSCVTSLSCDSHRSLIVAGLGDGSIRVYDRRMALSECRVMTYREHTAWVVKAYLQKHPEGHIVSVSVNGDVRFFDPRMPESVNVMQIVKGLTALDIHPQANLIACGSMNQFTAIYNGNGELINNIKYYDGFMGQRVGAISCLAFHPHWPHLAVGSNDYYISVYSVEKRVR
UniProt P70398: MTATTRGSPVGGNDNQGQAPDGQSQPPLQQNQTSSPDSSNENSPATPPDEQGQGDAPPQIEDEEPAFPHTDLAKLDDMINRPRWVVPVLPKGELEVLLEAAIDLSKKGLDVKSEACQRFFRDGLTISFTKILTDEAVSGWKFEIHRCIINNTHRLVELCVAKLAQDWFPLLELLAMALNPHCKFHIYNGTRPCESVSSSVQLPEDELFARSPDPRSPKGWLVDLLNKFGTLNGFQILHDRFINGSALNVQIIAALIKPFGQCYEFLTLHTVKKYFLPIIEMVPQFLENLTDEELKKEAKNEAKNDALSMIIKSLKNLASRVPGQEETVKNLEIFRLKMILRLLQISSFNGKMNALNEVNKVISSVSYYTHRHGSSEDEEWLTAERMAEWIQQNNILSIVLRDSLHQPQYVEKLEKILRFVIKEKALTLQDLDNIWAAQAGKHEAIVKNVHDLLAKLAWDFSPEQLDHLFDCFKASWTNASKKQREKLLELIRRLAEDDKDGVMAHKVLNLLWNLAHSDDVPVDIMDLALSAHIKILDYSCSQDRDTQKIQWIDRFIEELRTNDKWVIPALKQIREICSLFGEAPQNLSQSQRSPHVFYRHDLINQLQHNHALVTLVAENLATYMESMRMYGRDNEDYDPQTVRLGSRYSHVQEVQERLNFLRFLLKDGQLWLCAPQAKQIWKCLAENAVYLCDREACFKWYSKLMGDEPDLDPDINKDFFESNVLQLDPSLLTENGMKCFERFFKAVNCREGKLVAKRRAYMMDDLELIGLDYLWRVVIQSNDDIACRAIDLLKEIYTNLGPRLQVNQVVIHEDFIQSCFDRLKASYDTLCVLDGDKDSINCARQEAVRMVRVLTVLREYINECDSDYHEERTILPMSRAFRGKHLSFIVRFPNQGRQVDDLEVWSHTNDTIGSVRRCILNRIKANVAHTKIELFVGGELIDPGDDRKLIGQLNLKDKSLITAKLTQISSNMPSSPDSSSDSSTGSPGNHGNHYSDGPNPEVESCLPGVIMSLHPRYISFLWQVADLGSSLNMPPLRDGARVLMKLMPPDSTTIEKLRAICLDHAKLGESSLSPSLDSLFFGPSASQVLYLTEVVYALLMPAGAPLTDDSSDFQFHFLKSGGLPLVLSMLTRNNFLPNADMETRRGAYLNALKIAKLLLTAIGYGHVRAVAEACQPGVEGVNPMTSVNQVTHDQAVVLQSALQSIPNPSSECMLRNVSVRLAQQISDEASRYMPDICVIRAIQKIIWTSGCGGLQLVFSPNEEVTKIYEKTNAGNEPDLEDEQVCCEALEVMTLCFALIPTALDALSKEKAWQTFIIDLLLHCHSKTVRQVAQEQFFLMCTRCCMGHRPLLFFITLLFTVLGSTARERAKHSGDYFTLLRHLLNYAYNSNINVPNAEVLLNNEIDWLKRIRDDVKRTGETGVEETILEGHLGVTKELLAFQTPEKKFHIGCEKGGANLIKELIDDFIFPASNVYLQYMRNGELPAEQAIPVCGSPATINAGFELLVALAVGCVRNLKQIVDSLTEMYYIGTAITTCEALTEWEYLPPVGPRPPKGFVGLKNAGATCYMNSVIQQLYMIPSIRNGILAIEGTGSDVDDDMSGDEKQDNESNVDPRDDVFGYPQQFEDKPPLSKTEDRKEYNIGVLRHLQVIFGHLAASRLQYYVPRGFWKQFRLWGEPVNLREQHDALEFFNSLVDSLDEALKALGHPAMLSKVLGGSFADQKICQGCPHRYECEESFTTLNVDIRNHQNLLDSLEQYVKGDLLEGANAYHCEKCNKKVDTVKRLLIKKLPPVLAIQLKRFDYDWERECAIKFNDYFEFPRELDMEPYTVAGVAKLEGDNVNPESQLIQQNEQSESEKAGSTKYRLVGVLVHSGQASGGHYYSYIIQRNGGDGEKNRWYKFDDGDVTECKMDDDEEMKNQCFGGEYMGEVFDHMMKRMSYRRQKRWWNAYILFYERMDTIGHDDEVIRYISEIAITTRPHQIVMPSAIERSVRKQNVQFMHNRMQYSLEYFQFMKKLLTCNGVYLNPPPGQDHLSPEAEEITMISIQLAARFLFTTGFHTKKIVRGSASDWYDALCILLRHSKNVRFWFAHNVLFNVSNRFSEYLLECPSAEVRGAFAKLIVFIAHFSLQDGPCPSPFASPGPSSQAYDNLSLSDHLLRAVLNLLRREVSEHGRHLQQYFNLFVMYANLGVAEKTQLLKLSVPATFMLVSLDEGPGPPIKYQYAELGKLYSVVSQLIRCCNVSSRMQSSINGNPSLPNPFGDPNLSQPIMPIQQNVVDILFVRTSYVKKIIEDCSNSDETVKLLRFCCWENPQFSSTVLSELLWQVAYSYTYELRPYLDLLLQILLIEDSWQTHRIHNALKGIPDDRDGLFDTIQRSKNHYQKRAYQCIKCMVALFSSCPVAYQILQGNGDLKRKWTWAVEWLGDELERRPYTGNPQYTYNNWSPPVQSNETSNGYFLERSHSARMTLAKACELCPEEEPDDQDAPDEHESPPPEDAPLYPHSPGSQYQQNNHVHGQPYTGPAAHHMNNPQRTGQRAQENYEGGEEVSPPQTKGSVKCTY
UniProt Q8BSK8: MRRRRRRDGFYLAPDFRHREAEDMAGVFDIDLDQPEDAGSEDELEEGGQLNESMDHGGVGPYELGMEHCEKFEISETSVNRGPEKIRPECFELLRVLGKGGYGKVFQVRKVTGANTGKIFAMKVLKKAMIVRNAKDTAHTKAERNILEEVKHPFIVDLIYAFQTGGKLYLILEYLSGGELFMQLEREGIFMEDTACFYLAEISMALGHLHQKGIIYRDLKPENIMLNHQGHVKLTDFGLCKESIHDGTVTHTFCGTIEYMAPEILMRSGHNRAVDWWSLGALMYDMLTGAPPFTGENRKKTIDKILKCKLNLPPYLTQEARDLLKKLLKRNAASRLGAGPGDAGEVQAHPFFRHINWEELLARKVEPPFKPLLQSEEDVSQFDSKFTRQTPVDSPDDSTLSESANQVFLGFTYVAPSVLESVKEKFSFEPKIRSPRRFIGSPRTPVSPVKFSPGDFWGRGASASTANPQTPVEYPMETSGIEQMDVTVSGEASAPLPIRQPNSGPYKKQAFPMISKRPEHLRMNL

These are yes or no findings as the source states them, for the method shown. In cells and extracts the contact can be indirect. Some binding calls cover weakened binding; strength is not graded here.

In experiment [1] the target is regulatory-associated protein of mTOR (Raptor), mouse (mouse (endogenous in E14.5 frontal cortex)) (UniProt Q8K4Q0). The experiment is described as follows: co-IP; endogenous proteins from lysate of E14.5 mouse frontal cortex; IP lysis buffer 20 mM HEPES pH 7.8, 400 mM KCl, 5 mM EDTA, 0.4% NP40, 10% glycerol, 1 mM DTT; Pierce co-immunoprecipitation kit with anti-Usp9x or anti-Raptor antibodies; immunoblot.

The target of experiment [2] is ubiquitin-specific protease 9 located on the X-chromosome (Usp9x), mouse (mouse (endogenous in E14.5 frontal cortex)) (UniProt P70398). The experiment is described as above.

In the case of “ubiquitin-specific protease 9 located on the X-chromosome (Usp9x), mouse (from UniProt P70398 1-2559) (enzyme)”, the binding result in experiment [1] is given as “binds”.

With “regulatory-associated protein of mTOR (Raptor), mouse (from UniProt Q8K4Q0 1-1335)”, in experiment [2], the binding result was “binds”.

As to “p70S6 kinase, mouse (from UniProt Q8BSK8 1-525) (enzyme)”, the binding result in experiment [2] is “binds weakly”.
